Source: paper PMC5155539
Results are given in words; binding and its absence hold for the method and conditions named. Binding seen in cells or lysates may run through a third protein. Some entries that bind do so weakly or less than the wild type. For some assays here: Tags and fused reporters may be left off the sequences shown.

T1: ALADIN (endogenous) (human (endogenous in NCI-H295R)) (UniProt Q9NRG9)
T1 sequence: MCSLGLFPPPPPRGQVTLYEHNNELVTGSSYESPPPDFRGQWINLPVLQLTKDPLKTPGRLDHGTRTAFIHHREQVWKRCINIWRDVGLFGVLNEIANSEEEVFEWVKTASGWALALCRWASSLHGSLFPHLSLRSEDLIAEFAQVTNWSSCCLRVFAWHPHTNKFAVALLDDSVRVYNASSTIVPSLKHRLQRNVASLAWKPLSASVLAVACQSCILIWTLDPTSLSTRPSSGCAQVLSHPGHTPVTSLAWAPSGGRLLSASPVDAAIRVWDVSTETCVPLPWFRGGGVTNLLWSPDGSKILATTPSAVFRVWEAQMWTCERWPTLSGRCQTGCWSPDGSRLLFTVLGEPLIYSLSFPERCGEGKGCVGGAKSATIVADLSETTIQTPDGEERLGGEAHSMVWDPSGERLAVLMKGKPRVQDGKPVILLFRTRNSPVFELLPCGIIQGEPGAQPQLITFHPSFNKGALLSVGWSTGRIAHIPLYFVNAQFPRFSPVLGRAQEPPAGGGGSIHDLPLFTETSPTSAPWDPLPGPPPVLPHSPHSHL

T2: GFP-ALADIN fusion protein (human) (UniProt Q9NRG9)
T2 sequence: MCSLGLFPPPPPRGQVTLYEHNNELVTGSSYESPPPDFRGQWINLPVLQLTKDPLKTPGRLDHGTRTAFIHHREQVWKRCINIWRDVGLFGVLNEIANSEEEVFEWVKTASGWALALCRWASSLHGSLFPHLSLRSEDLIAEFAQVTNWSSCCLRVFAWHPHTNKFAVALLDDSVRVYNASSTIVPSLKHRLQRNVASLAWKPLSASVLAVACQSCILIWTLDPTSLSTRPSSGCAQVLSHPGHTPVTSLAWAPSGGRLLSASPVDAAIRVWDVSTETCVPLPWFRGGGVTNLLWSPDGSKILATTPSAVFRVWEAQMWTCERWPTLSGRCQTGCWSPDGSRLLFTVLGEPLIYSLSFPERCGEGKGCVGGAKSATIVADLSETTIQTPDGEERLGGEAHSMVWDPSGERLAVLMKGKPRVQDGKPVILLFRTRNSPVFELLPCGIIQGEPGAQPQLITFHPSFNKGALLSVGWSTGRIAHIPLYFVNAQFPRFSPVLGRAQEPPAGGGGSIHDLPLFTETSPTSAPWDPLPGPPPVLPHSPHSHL

T3: PGRMC2-GFP fusion protein (human) (UniProt O15173)
T3 sequence: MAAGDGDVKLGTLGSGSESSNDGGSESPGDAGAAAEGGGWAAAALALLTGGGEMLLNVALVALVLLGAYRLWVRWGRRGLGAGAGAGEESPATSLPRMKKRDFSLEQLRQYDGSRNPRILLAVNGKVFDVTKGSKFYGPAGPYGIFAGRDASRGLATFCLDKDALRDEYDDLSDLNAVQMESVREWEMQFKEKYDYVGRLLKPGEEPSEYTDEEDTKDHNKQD

T4: progesterone receptor membrane component 2 (PGRMC2), endogenous (human (endogenous in NCI-H295R)) (UniProt O15173)
T4 sequence: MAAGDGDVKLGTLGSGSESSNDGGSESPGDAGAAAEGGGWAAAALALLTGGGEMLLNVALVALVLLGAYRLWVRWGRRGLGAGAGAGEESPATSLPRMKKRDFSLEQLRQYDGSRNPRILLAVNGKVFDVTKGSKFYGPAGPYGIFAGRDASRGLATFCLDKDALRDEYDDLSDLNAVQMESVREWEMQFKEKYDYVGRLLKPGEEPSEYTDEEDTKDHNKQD


Experiments:
[1] = target: T1, ALADIN (endogenous) (human (endogenous in NCI-H295R)); test: co-IP; endogenous ALADIN pulldown: anti-ALADIN (2 ug/ml) on Protein G UltraLink resin sepharose beads, NCI-H295R lysate (500 ug protein), normal mouse IgG as control; western blot
[2] = target: T2, GFP-ALADIN fusion protein (human); test: co-IP; GFP-Trap_A agarose beads, whole cell lysates (500 ug protein) of NCI-H295R cells expressing GFP-ALADIN, PGRMC2-GFP or GFP (negative control); bound overnight at 4°C; western blot
[3] = target: T3, PGRMC2-GFP fusion protein (human); test: as above
[4] = target: T4, progesterone receptor membrane component 2 (PGRMC2), endogenous (human (endogenous in NCI-H295R)); test: co-IP; endogenous PGRMC2 pulldown: anti-PGRMC2 (HPA041172, 2 ug/ml) on Protein G UltraLink resin sepharose beads, NCI-H295R lysate (500 ug protein), normal rabbit IgG as control; western blot

binding [1] | binding [2] | binding [3] | binding [4] | Binder
binds | binds | binds |  | progesterone receptor membrane component 2 (PGRMC2), endogenous (protein, UniProt O15173 1-223) MAAGDGDVKLGTLGSGSESSNDGGSESPGDAGAAAEGGGWAAAALALLTGGGEMLLNVALVALVLLGAYRLWVRWGRRGLGAGAGAGEESPATSLPRMKKRDFSLEQLRQYDGSRNPRILLAVNGKVFDVTKGSKFYGPAGPYGIFAGRDASRGLATFCLDKDALRDEYDDLSDLNAVQMESVREWEMQFKEKYDYVGRLLKPGEEPSEYTDEEDTKDHNKQD
 |  | binds | binds weakly | ALADIN (endogenous) (protein, UniProt Q9NRG9 1-546) MCSLGLFPPPPPRGQVTLYEHNNELVTGSSYESPPPDFRGQWINLPVLQLTKDPLKTPGRLDHGTRTAFIHHREQVWKRCINIWRDVGLFGVLNEIANSEEEVFEWVKTASGWALALCRWASSLHGSLFPHLSLRSEDLIAEFAQVTNWSSCCLRVFAWHPHTNKFAVALLDDSVRVYNASSTIVPSLKHRLQRNVASLAWKPLSASVLAVACQSCILIWTLDPTSLSTRPSSGCAQVLSHPGHTPVTSLAWAPSGGRLLSASPVDAAIRVWDVSTETCVPLPWFRGGGVTNLLWSPDGSKILATTPSAVFRVWEAQMWTCERWPTLSGRCQTGCWSPDGSRLLFTVLGEPLIYSLSFPERCGEGKGCVGGAKSATIVADLSETTIQTPDGEERLGGEAHSMVWDPSGERLAVLMKGKPRVQDGKPVILLFRTRNSPVFELLPCGIIQGEPGAQPQLITFHPSFNKGALLSVGWSTGRIAHIPLYFVNAQFPRFSPVLGRAQEPPAGGGGSIHDLPLFTETSPTSAPWDPLPGPPPVLPHSPHSHL
